Experimental data: paper doi:10.1101/2022.07.12.499744
No constants are given. Whether binding was seen depends on the method and setting. Binding seen in cells or lysates may run through a third protein. Some binding calls cover weakened binding; strength is not graded here. Sequences can lack the tags named with a protein. Blank lines part the entries; values can stand above or below the molecule they belong to.

The chains behind the UniProt entries cited, without tags or fusion partners. Where a name states a change or a piece, a line headed by the entry shows the natural chain unless it says otherwise.
UniProt Q9BRT9: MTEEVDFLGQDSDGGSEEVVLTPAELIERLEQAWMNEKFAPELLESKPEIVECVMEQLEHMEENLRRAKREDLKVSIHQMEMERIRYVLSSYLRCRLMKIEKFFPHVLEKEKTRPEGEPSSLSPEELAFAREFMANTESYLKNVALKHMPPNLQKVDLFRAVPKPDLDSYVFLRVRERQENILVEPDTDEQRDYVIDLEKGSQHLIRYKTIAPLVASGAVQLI
UniProt Q14691: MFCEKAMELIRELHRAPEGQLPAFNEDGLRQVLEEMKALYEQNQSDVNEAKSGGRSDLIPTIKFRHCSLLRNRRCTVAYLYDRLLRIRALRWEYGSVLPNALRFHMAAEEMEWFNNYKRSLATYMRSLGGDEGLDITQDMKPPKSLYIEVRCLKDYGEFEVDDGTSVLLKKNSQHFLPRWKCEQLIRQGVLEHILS
UniProt Q9Y248: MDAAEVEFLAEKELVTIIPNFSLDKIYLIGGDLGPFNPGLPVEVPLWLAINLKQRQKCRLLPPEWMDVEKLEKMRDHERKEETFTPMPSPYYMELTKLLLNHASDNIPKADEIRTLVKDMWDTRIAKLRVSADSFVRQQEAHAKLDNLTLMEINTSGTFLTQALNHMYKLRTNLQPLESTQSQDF
UniProt Q9BRX5: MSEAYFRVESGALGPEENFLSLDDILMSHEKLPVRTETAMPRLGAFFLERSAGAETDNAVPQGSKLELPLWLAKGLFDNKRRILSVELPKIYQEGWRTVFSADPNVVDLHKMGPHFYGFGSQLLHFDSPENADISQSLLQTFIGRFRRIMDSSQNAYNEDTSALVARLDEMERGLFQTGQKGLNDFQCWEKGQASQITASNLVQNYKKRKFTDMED

Experiments:
FLAG-tagged LRR1 (human) = molecular target: T1, FLAG-tagged LRR1 (human) (UniProt Q96L50); assay: co-IP
T1 sequence: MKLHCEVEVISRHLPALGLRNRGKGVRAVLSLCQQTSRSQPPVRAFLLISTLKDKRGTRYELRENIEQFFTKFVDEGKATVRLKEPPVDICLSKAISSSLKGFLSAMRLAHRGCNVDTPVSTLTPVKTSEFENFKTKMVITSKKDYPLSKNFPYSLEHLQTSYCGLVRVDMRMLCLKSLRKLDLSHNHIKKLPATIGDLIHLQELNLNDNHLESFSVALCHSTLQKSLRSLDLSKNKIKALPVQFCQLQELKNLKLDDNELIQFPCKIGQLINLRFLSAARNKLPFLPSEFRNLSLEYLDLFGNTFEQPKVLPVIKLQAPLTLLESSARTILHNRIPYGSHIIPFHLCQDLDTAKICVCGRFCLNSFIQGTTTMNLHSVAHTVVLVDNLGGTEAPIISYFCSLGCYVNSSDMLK

[1] = molecular target: GINS complex (SLD5, PSF1-3) (human (endogenous in U2OS and HCT116)) (UniProt Q9BRT9+Q14691+Q9Y248+Q9BRX5); assay: co-IP

binding (FLAG-tagged LRR1 (human)): binds
Molecule: GINS complex (SLD5, PSF1-3) (from UniProt Q9BRT9 1-223; Q14691 1-196; Q9Y248 1-185; Q9BRX5 1-216)

binding [1]: binds
B1: FLAG-LRR1ΔVHL (protein, UniProt Q96L50)
chain: MKLHCEVEVISRHLPALGLRNRGKGVRAVLSLCQQTSRSQPPVRAFLLISTLKDKRGTRYELRENIEQFFTKFVDEGKATVRLKEPPVDICLSKAISSSLKGFLSAMRLAHRGCNVDTPVSTLTPVKTSEFENFKTKMVITSKKDYPLSKNFPYSLEHLQTSYCGLVRVDMRMLCLKSLRKLDLSHNHIKKLPATIGDLIHLQELNLNDNHLESFSVALCHSTLQKSLRSLDLSKNKIKALPVQFCQLQELKNLKLDDNELIQFPCKIGQLINLRFLSAARNKLPFLPSEFRNLSLEYLDLFGNTFEQPKVLPVIKLQACVCGRFCLNSFIQGTTTMNLHSVAHTVVLVDNLGGTEAPIISYFCSLGCYVNSSDMLK

binding [1]: binds
B2: mAC-LRR1 (endogenous LRR1 tagged N-terminally with the mAC tag) (protein, UniProt Q96L50 1-414)
chain: T1 sequence
